We go through five molecules from article PMC5352758, “Methods for 20S Immunoproteasome and 20S Constitutive Proteasome Determination Based on SPRI Biosensors” (Cellular and Molecular Bioengineering, 2017).

Where a SMILES comes first, the peptide text is derived from it. [ ]: non-standard residue; d: D form. Nle = CCCC[C@H](N)C(=O)O

The test system of this data set is 20Sc. As to the kind of experiment: Indirect 20Sc determination on PSI-based SPRI biosensor with 20Si blocked by inhibitor. It counts as binding, mammalian. The note with it: for Found 20Sc: compound as blocking solution for 20Si (15 μg mL−1), 20Si 2.8 μg mL−1, ratio 20Sc vs. 20Si 1:1, added 20Sc 2.80 μg mL−1, 95% confidence limits, 12 measurements; for Recovery: compound as blocking solution for 20Si, ratio 20Sc vs. 20Si 1:1, added 20Sc 2.80 μg mL−1.

Consider `COc1ccc(C[C@H](NC(=O)[C@H](C)NC(=O)CN2CCOCC2)C(=O)N[C@@H](Cc2ccccc2)C(=O)[C@]2(C)CO2)cc1` [ONX 0914, reference compound], for which the “Found 20Sc” value amounted to 2.55 ± 0.54 µg/mL and the Recovery is given as 91%.

For the molecule `CC(C)C[C@H](NC(=O)[C@H](CC(C)C)NC(=O)[C@@H](N)Cc1ccccc1)C(=O)O` [compound 5, H-Phe-Leu–Leu-OH] (H-Phe-Leu-Leu-OH), the “Found 20Sc” value amounted to 2.93 ± 0.36 µg/mL and the Recovery was determined as 105%.

As for `CC(C)C[C@H](NC(=O)[C@@H](N)CC(C)C)C(=O)N[C@@H](Cc1ccccc1)C(=O)O` [compound 8, H-Leu-Leu-Phe-OH] (H-Leu-Leu-Phe-OH), the “Found 20Sc” value amounted to 2.60 ± 0.35 µg/mL and the Recovery amounted to 93%.

As for `CC(C)C[C@H](NC(=O)[C@H](Cc1ccccc1)NC(=O)[C@@H](N)CC(C)C)C(=O)O` [compound 10, H-Leu-Phe-Leu-OH] (H-Leu-Phe-Leu-OH), the “Found 20Sc” value was found to be 2.69 ± 0.33 µg/mL and the Recovery is listed as 96%.

On to `CCCC[C@H](NC(=O)[C@H](CC(C)C)NC(=O)[C@@H](N)Cc1ccccc1)C(=O)O` [compound 11, H-Phe-Leu-nLeu-OH] (H-Phe-Leu-[Nle]-OH), for which the “Found 20Sc” value turned out to be 2.60 ± 0.53 µg/mL and the Recovery came out at 93%.
